Assay results from publication PMC5824891.
These are yes or no findings as the source states them, for the method shown. In cells and extracts the contact can be indirect. Tags and fused reporters may be left off the sequences shown. Each block holds one binder with its values, some of them ahead of it.

Legend:
Assay in all cases: co-IP; IP of GFP-tagged subunits from HeLa cells co-expressing HA-VIPAS39 alone (left panel) or HA-VIPAS39 and HA-Vps33B (right panel), blot for HA; lysis buffer 40 mM TRIS pH 7.4, 100 mM NaCl, 0.1% TX-100, 5 mM EDTA; also read after prolonged exposure of the blot
GFP-tagged Vps41 = target: T1, GFP-tagged Vps41 (UniProt P49754)
T1 sequence: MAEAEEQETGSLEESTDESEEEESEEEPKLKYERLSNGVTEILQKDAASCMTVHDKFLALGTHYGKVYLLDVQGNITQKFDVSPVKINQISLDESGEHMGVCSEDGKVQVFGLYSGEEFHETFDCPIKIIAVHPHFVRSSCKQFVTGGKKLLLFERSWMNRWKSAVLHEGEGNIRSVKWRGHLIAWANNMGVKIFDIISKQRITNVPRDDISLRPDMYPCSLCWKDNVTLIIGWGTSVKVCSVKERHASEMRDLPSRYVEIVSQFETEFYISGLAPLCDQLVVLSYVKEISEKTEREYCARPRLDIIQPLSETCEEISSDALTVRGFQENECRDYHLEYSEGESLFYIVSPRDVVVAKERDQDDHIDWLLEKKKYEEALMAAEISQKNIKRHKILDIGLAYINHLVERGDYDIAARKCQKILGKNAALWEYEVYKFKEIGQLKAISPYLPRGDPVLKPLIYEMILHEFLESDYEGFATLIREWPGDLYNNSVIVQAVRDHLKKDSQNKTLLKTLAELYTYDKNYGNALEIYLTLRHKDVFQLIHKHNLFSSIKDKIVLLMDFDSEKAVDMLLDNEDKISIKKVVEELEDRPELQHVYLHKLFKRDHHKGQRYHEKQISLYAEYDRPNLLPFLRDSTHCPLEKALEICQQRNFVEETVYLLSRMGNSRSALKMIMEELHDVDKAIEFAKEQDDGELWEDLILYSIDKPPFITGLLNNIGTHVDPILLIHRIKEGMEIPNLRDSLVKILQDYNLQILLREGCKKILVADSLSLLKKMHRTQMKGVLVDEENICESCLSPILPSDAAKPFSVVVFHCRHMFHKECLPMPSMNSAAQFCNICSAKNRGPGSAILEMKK

GFP-tagged Vps33A = target: T2, GFP-tagged Vps33A (UniProt Q96AX1)
T2 sequence: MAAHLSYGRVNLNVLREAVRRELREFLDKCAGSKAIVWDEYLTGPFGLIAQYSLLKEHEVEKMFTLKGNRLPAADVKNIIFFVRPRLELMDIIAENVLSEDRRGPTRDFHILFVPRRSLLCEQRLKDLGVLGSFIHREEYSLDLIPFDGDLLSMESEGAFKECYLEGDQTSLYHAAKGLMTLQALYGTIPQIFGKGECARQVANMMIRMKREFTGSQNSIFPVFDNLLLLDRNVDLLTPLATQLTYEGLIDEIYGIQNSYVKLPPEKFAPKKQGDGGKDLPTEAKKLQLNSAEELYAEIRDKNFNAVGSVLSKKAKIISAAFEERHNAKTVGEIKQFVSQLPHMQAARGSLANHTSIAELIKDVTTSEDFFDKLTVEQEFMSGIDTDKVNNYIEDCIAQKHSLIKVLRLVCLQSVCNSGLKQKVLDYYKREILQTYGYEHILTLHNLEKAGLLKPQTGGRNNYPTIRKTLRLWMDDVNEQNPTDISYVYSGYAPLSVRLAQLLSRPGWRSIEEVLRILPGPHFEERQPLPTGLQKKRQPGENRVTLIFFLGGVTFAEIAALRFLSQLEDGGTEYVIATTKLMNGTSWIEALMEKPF

GFP-Vps11 = target: T3, GFP-Vps11 (UniProt Q9H270)
T3 sequence: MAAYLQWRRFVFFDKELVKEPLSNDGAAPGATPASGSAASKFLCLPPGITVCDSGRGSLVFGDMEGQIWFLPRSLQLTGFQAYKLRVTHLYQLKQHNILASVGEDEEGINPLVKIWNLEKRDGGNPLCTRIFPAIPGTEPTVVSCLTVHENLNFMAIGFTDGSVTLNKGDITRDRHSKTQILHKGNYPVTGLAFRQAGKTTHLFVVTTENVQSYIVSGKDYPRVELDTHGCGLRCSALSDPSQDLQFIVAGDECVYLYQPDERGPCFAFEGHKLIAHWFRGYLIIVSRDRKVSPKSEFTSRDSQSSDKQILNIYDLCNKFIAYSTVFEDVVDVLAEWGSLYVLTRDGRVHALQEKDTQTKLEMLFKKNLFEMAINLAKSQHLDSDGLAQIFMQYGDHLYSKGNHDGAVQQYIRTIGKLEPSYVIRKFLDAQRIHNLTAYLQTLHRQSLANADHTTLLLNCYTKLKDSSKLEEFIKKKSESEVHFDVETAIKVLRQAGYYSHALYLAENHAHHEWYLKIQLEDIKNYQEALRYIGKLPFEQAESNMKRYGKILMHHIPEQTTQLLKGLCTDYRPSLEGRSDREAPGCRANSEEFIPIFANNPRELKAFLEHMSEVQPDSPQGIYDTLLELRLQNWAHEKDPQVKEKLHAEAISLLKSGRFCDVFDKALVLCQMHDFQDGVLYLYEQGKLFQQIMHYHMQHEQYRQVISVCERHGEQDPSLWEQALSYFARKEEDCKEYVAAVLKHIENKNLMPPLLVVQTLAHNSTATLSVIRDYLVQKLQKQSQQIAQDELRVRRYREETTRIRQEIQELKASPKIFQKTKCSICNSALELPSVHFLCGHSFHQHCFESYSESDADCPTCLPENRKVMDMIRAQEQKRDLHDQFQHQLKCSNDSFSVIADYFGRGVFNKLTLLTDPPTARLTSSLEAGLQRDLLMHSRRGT

binding (GFP-tagged Vps41): no binding | binding (GFP-tagged Vps33A): no binding | binding (GFP-Vps11): no binding
B1: HA-Vps33B (protein, UniProt Q9H267 1-617)
chain: MAFPHRPDAPELPDFSMLKRLARDQLIYLLEQLPGKKDLFIEADLMSPLDRIANVSILKQHEVDKLYKVENKPALSSNEQLCFLVRPRIKNMRYIASLVNADKLAGRTRKYKVIFSPQKFYACEMVLEEEGIYGDVSCDEWAFSLLPLDVDLLSMELPEFFRDYFLEGDQRWINTVAQALHLLSTLYGPFPNCYGIGRCAKMAYELWRNLEEEEDGETKGRRPEIGHIFLLDRDVDFVTALCSQVVYEGLVDDTFRIKCGSVDFGPEVTSSDKSLKVLLNAEDKVFNEIRNEHFSNVFGFLSQKARNLQAQYDRRRGMDIKQMKNFVSQELKGLKQEHRLLSLHIGACESIMKKKTKQDFQELIKTEHALLEGFNIRESTSYIEEHIDRQVSPIESLRLMCLLSITENGLIPKDYRSLKTQYLQSYGPEHLLTFSNLRRAGLLTEQAPGDTLTAVESKVSKLVTDKAAGKITDAFSSLAKRSNFRAISKKLNLIPRVDGEYDLKVPRDMAYVFGGAYVPLSCRIIEQVLERRSWQGLDEVVRLLNCSDFAFTDMTKEDKASSESLRLILVVFLGGCTFSEISALRFLGREKGYRFIFLTTAVTNSARLMEAMSEVKA

binding (GFP-tagged Vps41): no binding | binding (GFP-tagged Vps33A): no binding | binding (GFP-Vps11): no binding
B2: HA-VIPAS39 (protein, UniProt Q9H9C1 1-493)
chain: MNRTKGDEEEYWNSSKFKAFTFDDEDDELSQLKESKRAVNSLRDFVDDDDDDDLERVSWSGEPVGSISWSIRETAGNSGSTHEGREQLKSRNSFSSYAQLPKPTSTYSLSSFFRGRTRPGSFQSLSDALSDTPAKSYAPELGRPKGEYRDYSNDWSPSDTVRRLRKGKVCSLERFRSLQDKLQLLEEAVSMHDGNVITAVLIFLKRTLSKEILFRELEVRQVALRHLIHFLKEIGDQKLLLDLFRFLDRTEELALSHYREHLNIQDPDKRKEFLKTCVGLPFSAEDSAHIQDHYTLLERQIIIEANDRHLESAGQTEIFRKHPRKASILNMPLVTTLFYSCFYHYTEAEGTFSSPVNLKKTFKIPDKQYVLTALAARAKLRAWNDVDALFTTKNWLGYTKKRAPIGFHRVVEILHKNNAPVQILQEYVNLVEDVDTKLNLATKFKCHDVVIDTYRDLKDRQQLLAYRSKVDKGSAEEEKIDALLSSSQIRWKN
